# From the supplement of paper PMC8728848
# The list shows a part of the results.
# B1: SP15308F-bth-333-19-333 (Bacteroides thetaiotaomicron) (protein)
# chain: SCNNEWESEQYVQMVSFKAPVNAQGVTPIYIRYKPEGKVTYQLPLIVSGSTMNSKDLNVHVGLDLDTLDVLNVEHFGSRKELFFKPLENKYYEFPETVQIPAGECTSLLPIDFALKDLDQVDKWVLPLAIQSNDPSHNYQANPRKFYRRAMLRISPFNDYSGQYSATAYKVYFKGNEKEAIVPEYHTSYVIDDKTIFFYAGLIDIDRLDRKYYKIKFEFTEEKIDLQTRKLKISSDNEDINLVVKGQPSYTVEEEMDATRPYLKHIYVTINNLEYEFTDYTSVPGYPLEYVVKGSLTMERKINTQIPDEDQAIEW
# Assays:
# Test in all cases: glycan array binding signal (z-score within array); higher = stronger binding
# Conditions in all cases: glycan notation: IUPAC condensed, linker removed
# [1] = molecular target: Fuc(a1-2)[GalNAc(a1-3)]Gal(b1-3)GlcNAc(b1-6)GalNAc
# How it was run: (§1)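 The binding signal is a Z-score computed within each array. Data were drawn from 3228 arrays in the Consortium for Functional Glycomics database, restricted to those with a known protein sequence. Scores were averaged over arrays of the same protein sequence at different concentrations or buffers, and over linkers, and negative values can be taken as non-binding.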
# [2] = molecular target: Fuc(a1-2)[GalNAc(a1-3)]Gal(b1-4)Glc
# How it was run: as §1
# [3] = molecular target: Fuc(a1-2)[GalNAc(a1-3)]Gal(b1-4)GlcNAc
# How it was run: as §1
# [4] = molecular target: Fuc(a1-2)[GalNAc(a1-3)]Gal(b1-4)GlcNAc(b1-2)Man
# How it was run: as §1
# [5] = molecular target: Fuc(a1-2)[GalNAc(a1-3)]Gal(b1-4)GlcNAc(b1-2)Man(a1-3)[Fuc(a1-2)[GalNAc(a1-3)]Gal(b1-4)GlcNAc(b1-2)Man(a1-6)]Man(b1-4)GlcNAc(b1-4)GlcNAc
# How it was run: as §1
# [6] = molecular target: Fuc(a1-2)[GalNAc(a1-3)]Gal(b1-4)GlcNAc(b1-2)Man(a1-3)[Fuc(a1-2)[GalNAc(a1-3)]Gal(b1-4)GlcNAc(b1-2)Man(a1-6)]Man(b1-4)GlcNAc(b1-4)[Fuc(a1-6)]GlcNAc
# How it was run: as §1
# [7] = molecular target: Fuc(a1-2)[GalNAc(a1-3)]Gal(b1-4)GlcNAc(b1-3)Gal(b1-4)GlcNAc
# How it was run: as §1
# [8] = molecular target: Fuc(a1-2)[GalNAc(a1-3)]Gal(b1-4)GlcNAc(b1-3)Gal(b1-4)GlcNAc(b1-3)Gal(b1-4)GlcNAc
# How it was run: as §1
# [9] = molecular target: Fuc(a1-2)[GalNAc(a1-3)]Gal(b1-4)GlcNAc(b1-3)GalNAc
# How it was run: as §1
# [10] = molecular target: Fuc(a1-2)[GalNAc(a1-3)]Gal(b1-4)GlcNAc(b1-3)[Fuc(a1-2)[GalNAc(a1-3)]Gal(b1-4)GlcNAc(b1-6)]GalNAc
# How it was run: as §1
# [11] = molecular target: Fuc(a1-2)[GalNAc(a1-3)]Gal(b1-4)GlcNAc(b1-6)GalNAc
# How it was run: as §1
# [12] = molecular target: Fuc(a1-2)[GalNAc(a1-3)]Gal(b1-4)[Fuc(a1-3)]GlcNAc
# How it was run: as §1
# [13] = molecular target: Fuc(a1-2)[GalNAc(a1-3)]Gal(b1-4)[Fuc(a1-3)]GlcNAc(b1-3)GalNAc
# How it was run: as §1
# [14] = molecular target: Fuc(a1-2)[GalNAc(a1-4)]Gal(b1-4)GlcNAc
# How it was run: as §1
# [15] = molecular target: Fuc(a1-2)[GalNAc(b1-3)]Gal
# How it was run: as §1
# [16] = molecular target: Fuc(a1-3)GlcNAc
# How it was run: as §1
# [17] = molecular target: Fuc(a1-3)[Gal(b1-4)]Glc6S
# How it was run: as §1
# [18] = molecular target: Fuc(a1-3)[Gal(b1-4)]GlcNAc
# How it was run: as §1
# [19] = molecular target: Fuc(a1-3)[Gal(b1-4)]GlcNAc(b1-2)Man
# How it was run: as §1
# [20] = molecular target: Fuc(a1-3)[Gal(b1-4)]GlcNAc(b1-2)Man(a1-3)[Fuc(a1-3)[Gal(b1-4)]GlcNAc(b1-2)Man(a1-6)]Man(b1-4)GlcNAc(b1-4)GlcNAc
# How it was run: as §1
# [21] = molecular target: Fuc(a1-3)[Gal(b1-4)]GlcNAc(b1-2)Man(a1-3)[Fuc(a1-3)[Gal(b1-4)]GlcNAc(b1-2)Man(a1-6)]Man(b1-4)GlcNAc(b1-4)[Fuc(a1-6)]GlcNAc
# How it was run: as §1
# [22] = molecular target: Fuc(a1-3)[Gal(b1-4)]GlcNAc(b1-3)Gal(b1-3)[Fuc(a1-4)]GlcNAc
# How it was run: as §1
# [23] = molecular target: Fuc(a1-3)[Gal(b1-4)]GlcNAc(b1-3)Gal(b1-4)[Fuc(a1-3)]GlcNAc
# How it was run: as §1
# [24] = molecular target: Fuc(a1-3)[Gal(b1-4)]GlcNAc(b1-3)Gal(b1-4)[Fuc(a1-3)]GlcNAc(b1-3)Gal(b1-4)[Fuc(a1-3)]GlcNAc
# How it was run: as §1
# [25] = molecular target: Fuc(a1-3)[Gal(b1-4)]GlcNAc(b1-3)GalNAc
# How it was run: as §1
# [26] = molecular target: Fuc(a1-3)[Gal(b1-4)]GlcNAc(b1-6)GalNAc
# How it was run: as §1
# [27] = molecular target: Fuc(a1-3)[Gal(b1-4)]GlcNAc(b1-6)[Gal(b1-3)GlcNAc(b1-3)]Gal(b1-4)Glc
# How it was run: as §1
# [28] = molecular target: Fuc(a1-3)[Gal(b1-4)]GlcNAc6S
# How it was run: as §1
# [29] = molecular target: Fuc(a1-3)[Gal3S(b1-4)]Glc
# How it was run: as §1
# [30] = molecular target: Fuc(a1-3)[Gal3S(b1-4)]GlcNAc
# How it was run: as §1
# [31] = molecular target: Fuc(a1-3)[Gal3S(b1-4)]GlcNAc6S
# How it was run: as §1
# [32] = molecular target: Fuc(a1-3)[GalNAc(b1-4)]GlcNAc
# How it was run: as §1
# [33] = molecular target: Fuc(a1-3)[GalNAc(b1-4)]GlcNAc6S
# How it was run: as §1
# [34] = molecular target: Fuc(a1-4)GlcNAc
# How it was run: as §1
# [35] = molecular target: Fuc(b1-3)GlcNAc
# How it was run: as §1
# [36] = molecular target: Gal(a1-2)Gal
# How it was run: as §1
# [37] = molecular target: Gal(a1-3)Gal
# How it was run: as §1
binder,measurement,setting,value
B1,glycan array binding signal (z-score),[1],-0.116
same,glycan array binding signal (z-score),[2],0.652
same,glycan array binding signal (z-score),[3],-0.582
same,glycan array binding signal (z-score),[4],-0.687
same,glycan array binding signal (z-score),[5],-0.498
same,glycan array binding signal (z-score),[6],-0.115
same,glycan array binding signal (z-score),[7],-0.619
same,glycan array binding signal (z-score),[8],0.048
same,glycan array binding signal (z-score),[9],0.27
same,glycan array binding signal (z-score),[10],0.11
same,glycan array binding signal (z-score),[11],0.488
same,glycan array binding signal (z-score),[12],0.351
same,glycan array binding signal (z-score),[13],1.05
same,glycan array binding signal (z-score),[14],0.042
same,glycan array binding signal (z-score),[15],-1.22
same,glycan array binding signal (z-score),[16],1.93
same,glycan array binding signal (z-score),[17],2.16
same,glycan array binding signal (z-score),[18],-0.28
same,glycan array binding signal (z-score),[19],-0.304
same,glycan array binding signal (z-score),[20],-0.968
same,glycan array binding signal (z-score),[21],-0.717
same,glycan array binding signal (z-score),[22],0.591
same,glycan array binding signal (z-score),[23],0.248
same,glycan array binding signal (z-score),[24],-0.534
same,glycan array binding signal (z-score),[25],0.746
same,glycan array binding signal (z-score),[26],0.976
same,glycan array binding signal (z-score),[27],0.652
same,glycan array binding signal (z-score),[28],1.11
same,glycan array binding signal (z-score),[29],-0.073
same,glycan array binding signal (z-score),[30],-0.478
same,glycan array binding signal (z-score),[31],0.552
same,glycan array binding signal (z-score),[32],6.34
same,glycan array binding signal (z-score),[33],-0.769
same,glycan array binding signal (z-score),[34],7.35
same,glycan array binding signal (z-score),[35],-1.71
same,glycan array binding signal (z-score),[36],-0.492
same,glycan array binding signal (z-score),[37],-1.05

# Two consecutive records already listed, for reference:
binder,measurement,setting,value
B1,glycan array binding signal (z-score),[17],2.16
same,glycan array binding signal (z-score),[18],-0.28
